{"sequences": {"note": "Protein sequences, listed by entry. Tags and fused reporters are not part of them. Residues count along the entry.", "UniProt P68331, residues 31-338": "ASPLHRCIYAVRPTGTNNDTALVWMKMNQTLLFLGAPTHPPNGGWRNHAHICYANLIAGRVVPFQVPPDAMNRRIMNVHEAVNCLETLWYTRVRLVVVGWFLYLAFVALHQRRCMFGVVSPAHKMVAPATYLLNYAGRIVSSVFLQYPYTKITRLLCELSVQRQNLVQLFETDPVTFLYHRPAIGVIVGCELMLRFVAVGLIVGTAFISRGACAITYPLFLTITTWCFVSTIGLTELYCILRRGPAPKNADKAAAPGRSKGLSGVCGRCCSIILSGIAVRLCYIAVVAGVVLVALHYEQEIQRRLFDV", "UniProt P10204": "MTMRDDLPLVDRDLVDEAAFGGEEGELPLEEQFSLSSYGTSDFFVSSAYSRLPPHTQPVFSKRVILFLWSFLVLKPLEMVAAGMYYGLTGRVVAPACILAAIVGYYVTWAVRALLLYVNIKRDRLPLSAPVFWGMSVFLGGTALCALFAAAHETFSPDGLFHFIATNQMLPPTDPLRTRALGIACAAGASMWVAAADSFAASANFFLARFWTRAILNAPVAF", "UniProt P10221": "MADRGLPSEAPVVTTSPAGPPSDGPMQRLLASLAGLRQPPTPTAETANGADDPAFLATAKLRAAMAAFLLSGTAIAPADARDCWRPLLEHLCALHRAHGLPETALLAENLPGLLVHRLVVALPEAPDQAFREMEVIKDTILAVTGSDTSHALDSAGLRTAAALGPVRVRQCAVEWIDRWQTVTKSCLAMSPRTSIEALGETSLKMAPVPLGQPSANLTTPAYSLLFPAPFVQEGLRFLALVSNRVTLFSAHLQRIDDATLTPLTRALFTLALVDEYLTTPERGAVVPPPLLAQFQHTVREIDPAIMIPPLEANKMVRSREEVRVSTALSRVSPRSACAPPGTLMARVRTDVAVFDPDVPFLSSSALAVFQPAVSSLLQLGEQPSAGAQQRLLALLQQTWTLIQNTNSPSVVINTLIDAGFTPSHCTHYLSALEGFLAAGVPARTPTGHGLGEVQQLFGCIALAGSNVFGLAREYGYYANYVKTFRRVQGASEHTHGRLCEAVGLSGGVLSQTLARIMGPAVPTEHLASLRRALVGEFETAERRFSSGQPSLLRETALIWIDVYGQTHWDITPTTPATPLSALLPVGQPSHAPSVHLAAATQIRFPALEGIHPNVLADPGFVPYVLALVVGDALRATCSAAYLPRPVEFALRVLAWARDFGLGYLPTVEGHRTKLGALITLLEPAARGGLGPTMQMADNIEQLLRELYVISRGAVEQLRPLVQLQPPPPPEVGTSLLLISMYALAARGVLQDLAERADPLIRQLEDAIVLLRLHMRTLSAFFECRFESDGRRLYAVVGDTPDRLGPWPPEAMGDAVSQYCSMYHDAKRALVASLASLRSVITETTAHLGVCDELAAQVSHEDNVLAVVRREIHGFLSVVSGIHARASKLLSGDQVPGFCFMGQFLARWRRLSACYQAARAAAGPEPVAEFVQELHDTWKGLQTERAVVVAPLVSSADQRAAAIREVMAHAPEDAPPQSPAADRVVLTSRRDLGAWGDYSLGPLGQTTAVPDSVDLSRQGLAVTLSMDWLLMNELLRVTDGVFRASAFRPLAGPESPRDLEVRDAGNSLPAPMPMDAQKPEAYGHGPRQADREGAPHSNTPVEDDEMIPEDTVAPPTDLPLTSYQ"}, "source": "paper PMC5105669", "molecular_target": "HSV-1 glycoprotein K tagged with a V5 epitope (herpes simplex virus 1 (strain F)) (UniProt P68331)", "experiment": "co-IP; anti-V5 (gK) antibody on protein G magnetic Dynabeads; NP-40 lysates of Vero cells infected with VC1, DC474-480 or HSV-1(F) at MOI 2, 24 hpi; 10 min at room temperature, washed three times with PBS; immunoblot with anti-V5, anti-FLAG, anti-UL37 and anti-VP5", "note": "Results are given in words; binding and its absence hold for the method and conditions named. In cells and extracts the contact can be indirect. Some binding calls cover weakened binding; strength is not graded here.", "data": [{"substance": "HSV-1 UL20 protein tagged with a 3×FLAG epitope (from UniProt P10204 1-222)", "values": [{"measurement": "binding", "result": "binds"}]}, {"substance": "HSV-1 UL37 protein (wild type, from VC1 virus) (from UniProt P10221 1-1123)", "values": [{"measurement": "binding", "result": "binds"}]}]}
